# Where a name gives a salt, the structure may show the parent alone. Some of the results follow. Hit calls seldom repeat between salt and free forms of one compound.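 In K562 cells expressing nanoluciferase-fused kinases, luminescence was recorded at 4 h intervals between 2 and 18 h, normalized as percent of control with DMSO at 100% and a positive control at 0%. A significant (2 sigma) signal drop marks a time point as decreased. The authors' rule for a hit is not shown and takes in more than the number of time points.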
# Chains of the proteins cited; added tags and fusions are not shown. Lines headed by an entry give the natural chain unless they say otherwise; changes in a name come on top.
# UniProt P29317, whole entry: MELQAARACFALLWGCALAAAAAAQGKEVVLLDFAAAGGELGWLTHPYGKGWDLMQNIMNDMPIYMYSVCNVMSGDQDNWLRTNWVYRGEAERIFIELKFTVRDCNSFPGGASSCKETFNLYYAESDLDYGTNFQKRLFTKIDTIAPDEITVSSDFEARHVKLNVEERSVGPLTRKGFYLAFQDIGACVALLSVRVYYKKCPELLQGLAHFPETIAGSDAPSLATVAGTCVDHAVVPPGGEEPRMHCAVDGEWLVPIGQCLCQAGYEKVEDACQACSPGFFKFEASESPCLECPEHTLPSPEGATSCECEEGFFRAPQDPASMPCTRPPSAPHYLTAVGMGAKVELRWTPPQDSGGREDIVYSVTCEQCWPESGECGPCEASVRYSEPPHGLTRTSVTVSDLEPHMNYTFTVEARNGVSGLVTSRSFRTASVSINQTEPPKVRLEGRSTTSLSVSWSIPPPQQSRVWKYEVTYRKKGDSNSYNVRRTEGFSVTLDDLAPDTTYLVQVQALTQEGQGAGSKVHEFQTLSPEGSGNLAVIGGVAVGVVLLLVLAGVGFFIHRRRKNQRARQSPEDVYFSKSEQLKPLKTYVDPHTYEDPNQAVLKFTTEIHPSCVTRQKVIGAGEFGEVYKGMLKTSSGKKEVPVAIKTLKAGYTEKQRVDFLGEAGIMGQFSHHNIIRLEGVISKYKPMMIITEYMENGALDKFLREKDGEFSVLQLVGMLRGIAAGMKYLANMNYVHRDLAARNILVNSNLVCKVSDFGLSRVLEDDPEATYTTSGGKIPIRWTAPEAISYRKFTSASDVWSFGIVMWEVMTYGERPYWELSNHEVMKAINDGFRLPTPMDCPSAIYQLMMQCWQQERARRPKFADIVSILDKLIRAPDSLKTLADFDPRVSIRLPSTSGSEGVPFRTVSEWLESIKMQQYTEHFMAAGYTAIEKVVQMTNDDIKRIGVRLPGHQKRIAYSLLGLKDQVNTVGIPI
# UniProt P22607, whole entry, looked up: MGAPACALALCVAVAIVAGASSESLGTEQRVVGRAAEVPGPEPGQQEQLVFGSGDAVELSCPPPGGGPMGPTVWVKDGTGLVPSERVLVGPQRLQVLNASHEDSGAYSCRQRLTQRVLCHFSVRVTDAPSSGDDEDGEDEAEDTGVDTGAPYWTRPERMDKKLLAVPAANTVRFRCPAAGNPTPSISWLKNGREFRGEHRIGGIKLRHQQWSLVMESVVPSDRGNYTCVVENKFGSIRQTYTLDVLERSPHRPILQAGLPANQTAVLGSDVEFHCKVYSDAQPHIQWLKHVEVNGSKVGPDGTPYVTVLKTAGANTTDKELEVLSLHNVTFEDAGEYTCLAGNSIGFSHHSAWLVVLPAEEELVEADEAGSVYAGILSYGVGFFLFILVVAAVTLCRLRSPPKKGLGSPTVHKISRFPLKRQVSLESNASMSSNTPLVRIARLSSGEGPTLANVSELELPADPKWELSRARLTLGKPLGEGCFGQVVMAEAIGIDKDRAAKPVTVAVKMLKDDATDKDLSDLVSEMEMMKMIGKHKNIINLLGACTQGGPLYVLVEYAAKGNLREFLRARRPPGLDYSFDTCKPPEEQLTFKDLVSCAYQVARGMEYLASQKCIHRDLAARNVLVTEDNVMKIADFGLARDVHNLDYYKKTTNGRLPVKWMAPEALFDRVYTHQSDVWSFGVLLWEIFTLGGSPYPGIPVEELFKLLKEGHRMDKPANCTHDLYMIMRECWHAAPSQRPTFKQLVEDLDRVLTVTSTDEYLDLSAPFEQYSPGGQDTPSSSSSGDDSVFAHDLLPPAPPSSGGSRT
# UniProt P36888, whole entry: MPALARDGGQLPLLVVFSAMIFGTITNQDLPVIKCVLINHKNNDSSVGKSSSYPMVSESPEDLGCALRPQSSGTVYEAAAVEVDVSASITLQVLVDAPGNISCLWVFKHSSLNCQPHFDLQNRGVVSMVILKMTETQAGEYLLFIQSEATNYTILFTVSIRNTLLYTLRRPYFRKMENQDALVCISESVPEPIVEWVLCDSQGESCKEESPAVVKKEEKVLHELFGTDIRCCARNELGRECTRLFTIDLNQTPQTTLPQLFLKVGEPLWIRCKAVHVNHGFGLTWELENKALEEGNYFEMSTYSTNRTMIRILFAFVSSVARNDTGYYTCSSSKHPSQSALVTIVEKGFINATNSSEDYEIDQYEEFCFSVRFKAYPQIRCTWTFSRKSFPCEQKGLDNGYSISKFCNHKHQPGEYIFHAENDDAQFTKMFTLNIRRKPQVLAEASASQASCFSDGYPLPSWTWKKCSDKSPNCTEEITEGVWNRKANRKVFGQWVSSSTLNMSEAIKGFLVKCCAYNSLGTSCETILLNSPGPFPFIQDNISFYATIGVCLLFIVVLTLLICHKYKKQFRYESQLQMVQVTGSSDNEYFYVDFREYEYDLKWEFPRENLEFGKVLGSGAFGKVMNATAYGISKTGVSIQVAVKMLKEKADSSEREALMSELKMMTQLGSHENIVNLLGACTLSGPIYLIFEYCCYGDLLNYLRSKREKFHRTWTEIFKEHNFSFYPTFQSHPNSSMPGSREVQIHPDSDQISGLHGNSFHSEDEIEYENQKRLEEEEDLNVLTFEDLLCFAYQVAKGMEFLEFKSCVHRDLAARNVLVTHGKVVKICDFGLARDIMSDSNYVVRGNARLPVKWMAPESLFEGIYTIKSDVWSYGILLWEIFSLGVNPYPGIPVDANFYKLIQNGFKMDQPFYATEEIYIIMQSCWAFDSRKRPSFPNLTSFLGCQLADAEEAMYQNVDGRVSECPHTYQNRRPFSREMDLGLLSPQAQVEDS
# UniProt P06241, whole entry, looked up: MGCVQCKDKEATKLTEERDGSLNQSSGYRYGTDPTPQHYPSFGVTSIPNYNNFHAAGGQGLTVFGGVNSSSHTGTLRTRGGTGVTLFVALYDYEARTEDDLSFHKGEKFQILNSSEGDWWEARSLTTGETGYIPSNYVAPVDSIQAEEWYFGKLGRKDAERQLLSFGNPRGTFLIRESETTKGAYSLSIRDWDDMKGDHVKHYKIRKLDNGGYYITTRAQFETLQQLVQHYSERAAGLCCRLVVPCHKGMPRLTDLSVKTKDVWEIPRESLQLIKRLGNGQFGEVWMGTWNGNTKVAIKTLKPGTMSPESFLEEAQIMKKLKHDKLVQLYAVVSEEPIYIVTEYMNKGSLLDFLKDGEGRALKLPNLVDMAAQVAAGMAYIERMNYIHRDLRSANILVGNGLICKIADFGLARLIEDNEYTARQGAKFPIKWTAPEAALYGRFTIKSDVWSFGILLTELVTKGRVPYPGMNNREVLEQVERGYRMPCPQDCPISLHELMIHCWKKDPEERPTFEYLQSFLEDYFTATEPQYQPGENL
# UniProt P14616: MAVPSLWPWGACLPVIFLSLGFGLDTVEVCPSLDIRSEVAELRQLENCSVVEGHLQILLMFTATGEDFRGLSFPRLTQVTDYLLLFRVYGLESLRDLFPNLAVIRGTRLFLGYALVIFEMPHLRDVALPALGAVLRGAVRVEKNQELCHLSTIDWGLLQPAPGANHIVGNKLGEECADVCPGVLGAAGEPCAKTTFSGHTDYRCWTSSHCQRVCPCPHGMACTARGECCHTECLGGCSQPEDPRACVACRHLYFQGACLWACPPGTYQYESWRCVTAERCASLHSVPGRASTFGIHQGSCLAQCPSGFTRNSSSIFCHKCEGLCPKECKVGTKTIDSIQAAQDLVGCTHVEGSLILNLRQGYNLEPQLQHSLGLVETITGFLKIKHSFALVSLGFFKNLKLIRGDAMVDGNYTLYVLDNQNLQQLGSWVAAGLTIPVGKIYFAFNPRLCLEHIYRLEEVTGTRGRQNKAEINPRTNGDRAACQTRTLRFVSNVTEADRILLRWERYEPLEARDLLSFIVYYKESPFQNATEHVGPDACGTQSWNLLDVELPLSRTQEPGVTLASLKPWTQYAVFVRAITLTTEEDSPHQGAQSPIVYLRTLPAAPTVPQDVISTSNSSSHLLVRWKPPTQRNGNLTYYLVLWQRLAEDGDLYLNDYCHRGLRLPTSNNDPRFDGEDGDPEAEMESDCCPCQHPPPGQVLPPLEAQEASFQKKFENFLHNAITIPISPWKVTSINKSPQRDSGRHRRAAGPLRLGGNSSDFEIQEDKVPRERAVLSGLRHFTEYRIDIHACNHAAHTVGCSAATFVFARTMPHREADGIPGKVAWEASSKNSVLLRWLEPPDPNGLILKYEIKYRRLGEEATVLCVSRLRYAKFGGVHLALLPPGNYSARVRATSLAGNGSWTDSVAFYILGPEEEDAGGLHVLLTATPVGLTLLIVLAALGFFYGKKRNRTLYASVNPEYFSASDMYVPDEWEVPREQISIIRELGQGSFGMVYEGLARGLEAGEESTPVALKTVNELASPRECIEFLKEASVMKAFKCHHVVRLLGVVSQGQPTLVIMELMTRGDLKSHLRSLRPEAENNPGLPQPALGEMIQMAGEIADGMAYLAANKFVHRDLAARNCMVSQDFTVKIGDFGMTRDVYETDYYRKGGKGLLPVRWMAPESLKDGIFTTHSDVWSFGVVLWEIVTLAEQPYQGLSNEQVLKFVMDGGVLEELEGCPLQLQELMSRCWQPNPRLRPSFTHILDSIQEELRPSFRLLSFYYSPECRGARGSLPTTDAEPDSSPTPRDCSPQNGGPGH
# UniProt Q9Y616: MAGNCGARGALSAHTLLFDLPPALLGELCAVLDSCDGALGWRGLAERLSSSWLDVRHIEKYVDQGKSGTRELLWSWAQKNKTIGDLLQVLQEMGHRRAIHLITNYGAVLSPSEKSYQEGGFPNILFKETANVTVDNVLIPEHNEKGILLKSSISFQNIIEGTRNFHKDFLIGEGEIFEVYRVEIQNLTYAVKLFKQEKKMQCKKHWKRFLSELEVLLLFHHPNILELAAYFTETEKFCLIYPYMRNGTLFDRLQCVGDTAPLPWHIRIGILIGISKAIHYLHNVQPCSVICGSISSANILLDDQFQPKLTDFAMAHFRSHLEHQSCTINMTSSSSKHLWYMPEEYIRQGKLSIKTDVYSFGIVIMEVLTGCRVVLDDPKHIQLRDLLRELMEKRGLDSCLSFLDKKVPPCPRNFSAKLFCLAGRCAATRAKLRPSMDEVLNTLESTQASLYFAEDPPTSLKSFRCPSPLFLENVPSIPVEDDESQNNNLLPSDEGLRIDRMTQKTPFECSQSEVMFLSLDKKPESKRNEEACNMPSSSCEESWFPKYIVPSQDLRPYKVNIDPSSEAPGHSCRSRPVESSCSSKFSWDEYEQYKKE
# UniProt P23458: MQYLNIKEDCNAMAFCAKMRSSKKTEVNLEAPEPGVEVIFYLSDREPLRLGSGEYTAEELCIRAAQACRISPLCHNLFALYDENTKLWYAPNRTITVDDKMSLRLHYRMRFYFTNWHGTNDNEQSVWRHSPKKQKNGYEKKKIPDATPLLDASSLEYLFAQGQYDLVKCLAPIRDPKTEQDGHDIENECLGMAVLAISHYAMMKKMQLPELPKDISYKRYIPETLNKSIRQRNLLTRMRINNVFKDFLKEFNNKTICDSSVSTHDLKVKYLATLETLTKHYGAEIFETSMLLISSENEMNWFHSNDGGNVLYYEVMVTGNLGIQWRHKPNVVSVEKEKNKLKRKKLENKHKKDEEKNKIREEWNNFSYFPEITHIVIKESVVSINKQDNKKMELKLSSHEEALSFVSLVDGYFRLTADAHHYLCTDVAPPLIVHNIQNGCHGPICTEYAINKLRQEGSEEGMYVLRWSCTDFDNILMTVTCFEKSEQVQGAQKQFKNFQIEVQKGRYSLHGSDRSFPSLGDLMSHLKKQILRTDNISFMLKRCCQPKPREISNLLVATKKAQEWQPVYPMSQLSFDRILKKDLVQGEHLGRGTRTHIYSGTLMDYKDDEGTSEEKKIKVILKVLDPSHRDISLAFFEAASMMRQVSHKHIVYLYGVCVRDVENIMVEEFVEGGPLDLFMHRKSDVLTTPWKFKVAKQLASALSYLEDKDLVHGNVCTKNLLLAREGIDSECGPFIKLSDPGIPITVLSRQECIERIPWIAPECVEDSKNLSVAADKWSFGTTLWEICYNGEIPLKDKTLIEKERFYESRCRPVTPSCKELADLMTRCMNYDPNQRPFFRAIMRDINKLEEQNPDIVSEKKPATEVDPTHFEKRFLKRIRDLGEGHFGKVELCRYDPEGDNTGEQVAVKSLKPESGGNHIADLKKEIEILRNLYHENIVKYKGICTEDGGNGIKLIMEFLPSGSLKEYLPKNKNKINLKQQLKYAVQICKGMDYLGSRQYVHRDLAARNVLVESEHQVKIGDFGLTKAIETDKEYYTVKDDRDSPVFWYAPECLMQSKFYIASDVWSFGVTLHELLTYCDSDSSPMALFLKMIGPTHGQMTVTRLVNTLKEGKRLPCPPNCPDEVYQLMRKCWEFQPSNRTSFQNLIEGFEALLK
# Legend:
# Assay in all cases: number of time points (of 5) at which kinase-Nluc abundance scored as decreased, DMSO-normalised (count); higher = more persistent destabilization
# Settings in all cases: K562; 2-18 h
# EGFR_L861Q = EGFR_L861Q (UniProt P00533)
# EGFR_T790M = EGFR_T790M (UniProt P00533)
# EPHA2 = EPHA2 (UniProt P29317)
# ERBB3 = ERBB3 (UniProt P21860)
# [1] = target: ERBB4_R711C (clone: ERBB4_mut) (UniProt Q15303)
# ERN1 = ERN1 (UniProt O75460)
# FGFR1 = FGFR1 (UniProt P11362)
# FGFR2 = FGFR2 (UniProt P21802)
# FGFR3 = FGFR3 (UniProt P22607)
# FGR = FGR (UniProt P09769)
# FLT3 = FLT3 (UniProt P36888)
# FYN = FYN (UniProt P06241)
# GSK3A = GSK3A (UniProt P49840)
# HER2 = HER2 (UniProt P04626)
# INSRR = INSRR (UniProt P14616)
# IRAK3 = IRAK3 (UniProt Q9Y616)
# JAK1 = JAK1 (UniProt P23458)
# LCK = LCK (UniProt P06239)
# LIMK1 = LIMK1 (UniProt P53667)
# LIMK2 = LIMK2 (UniProt P53671)
SMILES,number of time points (EGFR_L861Q),number of time points (EGFR_T790M),number of time points (EPHA2),number of time points (ERBB3),number of time points [1],number of time points (ERN1),number of time points (FGFR1),number of time points (FGFR2),number of time points (FGFR3),number of time points (FGR),number of time points (FLT3),number of time points (FYN),number of time points (GSK3A),number of time points (HER2),number of time points (INSRR),number of time points (IRAK3),number of time points (JAK1),number of time points (LCK),number of time points (LIMK1),number of time points (LIMK2)
CN(C)C(=O)/C(C#N)=C/c1ccc(-c2nc3cnc4[nH]ccc4c3n2C2CCCCC2)o1 (10 µM),0,0,0,0,0,0,0,0,0,0,0,0,0,0,0,0,0,0,0,0
c1cc(OCCN2CCCCC2)cc(-c2n[nH]c3ccc(-c4nnc[nH]4)cc23)c1 [CC-401 (hydrochloride)] (10 µM),0,0,0,0,0,0,0,0,0,0,0,0,0,0,0,0,0,0,0,0
Cc1[nH]c(/C=C2\C(=O)Nc3ccc(S(=O)(=O)Cc4c(Cl)cccc4Cl)cc32)c(C)c1C(=O)N1CCC[C@@H]1CN1CCCC1 (2.5 µM),0,0,0,0,0,0,0,0,0,0,0,0,0,0,0,0,0,0,0,0
CCN(CCCOc1ccc2c(Nc3cc(CC(=O)Nc4cccc(F)c4)[nH]n3)ncnc2c1)CCOP(=O)(O)O [Barasertib] (10 µM),0,0,0,0,1,0,0,0,0,0,0,3,0,0,0,0,0,0,2,0
Nc1nc(N)c(N=O)c(OCC2CCCCC2)n1 (10 µM),0,0,0,0,4,0,0,0,0,0,0,0,0,0,0,0,0,0,0,0
CC(C)c1cnn2c(NCc3ccccc3)cc(NC[C@H]3CCNC[C@@H]3O)nc12 [Samuraciclib (hydrochloride)] (10 µM),0,0,0,0,0,0,0,0,0,0,0,0,0,0,0,0,0,0,0,0
CC(C)Oc1cc(Nc2nc(N[C@@H](C)c3ccc(F)cn3)ncc2Cl)n[nH]1 (10 µM),0,0,0,0,0,0,0,0,0,0,0,0,0,0,0,0,0,0,0,0
O=C(Nc1cc(C(F)(F)F)ccc1N1CCN(Cc2ccccn2)CC1)c1ccc(-c2ccncc2)o1 (10 µM),0,0,0,0,0,0,0,0,0,0,0,0,0,5,0,0,0,0,0,0
Brc1c(Br)c(Br)c2n[nH]nc2c1Br (10 µM),0,0,0,0,0,0,0,0,0,0,0,0,0,0,0,0,0,0,0,0
Cc1cccc([C@@H](CO)NC(=O)[C@@H](C)N2Cc3ccc(-c4nc(NC5CCOCC5)ncc4Cl)cc3C2=O)c1 [ERK1/2 inhibitor 1] (10 µM),0,0,0,2,1,0,0,0,0,0,0,0,0,0,0,0,0,0,0,0
COC(=O)c1ccc2c(C(=Nc3ccc(N(C)C(=O)CN4CCN(C)CC4)cc3)c3ccccc3)c(O)[nH]c2c1 [Nintedanib] (2.5 µM),0,0,0,0,0,0,0,0,0,0,0,0,0,0,0,0,0,0,0,0
CCN1CCN(Cc2ccc(C(=O)Nc3ccc(C)c(Oc4ccc5c(c4)CC(=O)N5)c3)cc2C(F)(F)F)CC1 (2.5 µM),2,1,2,3,3,2,2,3,0,0,1,2,0,0,3,1,1,0,2,1
CC(=O)N1CCN(c2ccc(OCC3COC(Cn4ccnc4)(c4ccc(Cl)cc4Cl)O3)cc2)CC1 (stereo not given) [Ketoconazole] (2.5 µM),0,0,0,0,0,0,0,0,0,0,0,0,0,0,0,0,0,0,0,0
Cc1cccc(Cn2nc(C3CC3)c3c(NC(=O)c4cnc5cc(OCCN6CCN(C)CC6)ccn45)cccc32)n1 (10 µM),0,0,0,0,0,0,0,0,0,0,0,0,0,0,0,0,0,0,0,0
CCCCC[C@H](O)CC(=O)CCc1ccc(O)c(OC)c1 [[6]-Gingerol] (10 µM),0,0,0,0,0,0,0,0,0,0,0,0,0,0,0,0,0,0,0,0
COc1cc(N2CCC(N)CC2)ccc1Nc1ncc(Cl)c(-c2c[nH]c3ccccc23)n1 (2.5 µM),0,0,0,0,0,0,0,–,0,0,0,0,0,0,0,0,0,0,0,0
Cc1nc(-c2cnc(NC(C)C)n(C)c2=O)ccc1Oc1ccnc(-c2cnn(C)c2)c1 (2.5 µM),0,0,0,0,2,0,0,0,0,0,–,0,0,0,0,0,0,–,0,0
Oc1cc(O)cc(/C=C/c2ccc(O)c(O)c2)c1 [Piceatannol] (10 µM),3,0,0,0,4,3,3,3,0,2,2,1,0,3,3,3,0,–,2,1
Cn1c(=O)n(-c2ccc(C(C)(C)C#N)cc2)c2c3cc(-c4cnc5ccccc5c4)ccc3ncc21 [Dactolisib (Tosylate)] (10 µM),0,0,0,3,4,0,0,3,3,0,4,4,0,0,3,3,4,0,4,4
C=CC(=O)N1C[C@H](Nc2ncnc3[nH]ccc23)CC[C@@H]1C [Ritlecitinib] (10 µM),0,0,0,0,0,0,0,0,0,0,0,0,0,0,0,0,0,0,0,0
COc1c(Cl)cc2c([nH]c3cnccc32)c1NC(=O)c1cccnc1C (10 µM),0,0,0,0,0,0,0,0,0,0,0,0,0,0,0,0,0,0,0,0
NS(=O)(=O)c1ccc(Nc2nc(OCC3CCCCC3)c3[nH]cnc3n2)cc1 (10 µM),0,0,0,0,0,0,0,0,0,0,0,0,0,0,0,0,0,0,0,0
C=CC(=O)N[C@H]1COC[C@H]1Nc1ncc2cc(-c3c(Cl)c(OC)cc(OC)c3Cl)c(=O)n(C)c2n1 (10 µM),0,0,0,0,0,0,0,–,0,0,0,0,0,0,0,0,0,0,0,0
O=C1NC(=NCc2cccs2)S/C1=C\c1ccc2ncccc2c1 (10 µM),0,0,0,0,0,0,0,0,0,0,0,0,0,0,0,0,0,0,0,0

# Random excerpt: 2 entries already listed, in no set order.
SMILES,number of time points (EGFR_L861Q),number of time points (EGFR_T790M),number of time points (EPHA2),number of time points (ERBB3),number of time points [1],number of time points (ERN1),number of time points (FGFR1),number of time points (FGFR2),number of time points (FGFR3),number of time points (FGR),number of time points (FLT3),number of time points (FYN),number of time points (GSK3A),number of time points (HER2),number of time points (INSRR),number of time points (IRAK3),number of time points (JAK1),number of time points (LCK),number of time points (LIMK1),number of time points (LIMK2)
Nc1nc(N)c(N=O)c(OCC2CCCCC2)n1 (10 µM),0,0,0,0,4,0,0,0,0,0,0,0,0,0,0,0,0,0,0,0
c1cc(OCCN2CCCCC2)cc(-c2n[nH]c3ccc(-c4nnc[nH]4)cc23)c1 [CC-401 (hydrochloride)] (10 µM),0,0,0,0,0,0,0,0,0,0,0,0,0,0,0,0,0,0,0,0

# Source: the supplement of paper PMC12823440, “Inhibitors supercharge kinase turnover through native proteolytic circuits” (Nature, 2025)
